Results are given in words; binding and its absence hold for the method and conditions named. In cells and extracts the contact can be indirect. Some results given as binding are weak or reduced against the parent protein; the word gives no strength.
Columns and labels:
Experiment in all cases: co-IP; endogenous proteins in HSC2 cell lysate (IP lysis buffer); pre-cleared, incubated with antibodies to 14-3-3ζ, NFκB, β-catenin or Bcl-2 (1:100) overnight at 4°C, protein A-Sepharose 4 hrs at 4°C, washed 4-5 times with lysis buffer; western blotting; negative control without primary antibody
[1] = target: β-catenin (human (endogenous in HSC2)) (UniProt P35222)
[2] = target: Bcl-2 (human (endogenous in HSC2)) (UniProt P10415)
[3] = target: p65 subunit of NFκB (human (endogenous in HSC2)) (UniProt Q04206)
[4] = target: 14-3-3ζ protein (human (endogenous in HSC2)) (UniProt P63104)

By UniProt entry, the sequences of proteins in these tests, tags left out.
UniProt P35222: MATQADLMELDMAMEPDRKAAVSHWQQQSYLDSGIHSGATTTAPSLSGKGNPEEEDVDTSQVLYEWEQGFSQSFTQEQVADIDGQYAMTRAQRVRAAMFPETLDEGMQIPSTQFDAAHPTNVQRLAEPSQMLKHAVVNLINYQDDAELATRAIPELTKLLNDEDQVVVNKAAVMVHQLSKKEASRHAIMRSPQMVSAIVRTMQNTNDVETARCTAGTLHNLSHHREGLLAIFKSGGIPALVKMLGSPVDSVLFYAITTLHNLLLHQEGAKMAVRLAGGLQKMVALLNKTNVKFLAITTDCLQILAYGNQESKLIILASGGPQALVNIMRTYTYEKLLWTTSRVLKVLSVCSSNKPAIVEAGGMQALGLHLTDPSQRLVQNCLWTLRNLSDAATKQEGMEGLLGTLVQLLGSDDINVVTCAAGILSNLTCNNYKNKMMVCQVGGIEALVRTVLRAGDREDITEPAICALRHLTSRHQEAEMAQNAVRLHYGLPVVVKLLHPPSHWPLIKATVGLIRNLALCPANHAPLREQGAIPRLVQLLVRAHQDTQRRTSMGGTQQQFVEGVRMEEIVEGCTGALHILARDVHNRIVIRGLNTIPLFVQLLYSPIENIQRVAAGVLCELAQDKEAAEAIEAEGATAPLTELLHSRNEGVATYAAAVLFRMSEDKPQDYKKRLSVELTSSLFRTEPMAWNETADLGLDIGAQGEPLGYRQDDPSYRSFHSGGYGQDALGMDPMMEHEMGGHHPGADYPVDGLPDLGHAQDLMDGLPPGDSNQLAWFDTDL
UniProt P10415: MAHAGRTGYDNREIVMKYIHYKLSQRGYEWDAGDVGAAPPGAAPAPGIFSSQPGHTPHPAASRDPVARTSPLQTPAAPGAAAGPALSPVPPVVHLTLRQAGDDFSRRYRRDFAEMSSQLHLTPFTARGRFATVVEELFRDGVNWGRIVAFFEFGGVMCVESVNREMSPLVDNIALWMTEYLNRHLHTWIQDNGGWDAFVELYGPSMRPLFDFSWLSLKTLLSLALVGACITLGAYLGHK
UniProt Q04206: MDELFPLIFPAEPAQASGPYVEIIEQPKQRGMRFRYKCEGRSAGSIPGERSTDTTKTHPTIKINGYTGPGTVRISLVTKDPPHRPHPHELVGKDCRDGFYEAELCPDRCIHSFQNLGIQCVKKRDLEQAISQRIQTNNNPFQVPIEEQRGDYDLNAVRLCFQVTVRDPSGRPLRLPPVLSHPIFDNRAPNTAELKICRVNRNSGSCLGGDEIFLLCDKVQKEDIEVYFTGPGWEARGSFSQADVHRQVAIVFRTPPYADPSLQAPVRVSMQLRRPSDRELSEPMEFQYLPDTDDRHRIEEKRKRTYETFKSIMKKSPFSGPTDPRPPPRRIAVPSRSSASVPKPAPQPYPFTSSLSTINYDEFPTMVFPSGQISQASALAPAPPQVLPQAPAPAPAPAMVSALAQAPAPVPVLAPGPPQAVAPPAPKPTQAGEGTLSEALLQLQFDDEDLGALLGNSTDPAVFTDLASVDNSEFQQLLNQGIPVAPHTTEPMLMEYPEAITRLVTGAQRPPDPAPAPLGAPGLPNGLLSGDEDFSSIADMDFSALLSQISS
UniProt P63104: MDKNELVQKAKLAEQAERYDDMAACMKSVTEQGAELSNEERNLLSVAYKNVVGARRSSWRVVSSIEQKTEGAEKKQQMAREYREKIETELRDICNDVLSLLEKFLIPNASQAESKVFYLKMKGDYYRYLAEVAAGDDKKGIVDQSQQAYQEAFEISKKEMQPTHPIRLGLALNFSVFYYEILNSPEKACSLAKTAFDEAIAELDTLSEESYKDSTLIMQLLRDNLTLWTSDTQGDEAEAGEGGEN

Row | Substance | binding [1] | binding [2] | binding [3] | binding [4]
1 | 14-3-3ζ protein (from UniProt P63104 1-245) | binds | binds | binds | 
2 | Bcl-2 (from UniProt P10415 1-239) |  |  |  | binds
3 | p65 subunit of NFκB (from UniProt Q04206 1-551) |  |  |  | binds
4 | β-catenin (from UniProt P35222 1-781) |  |  |  | binds

Source: PMC2082039
